# These are yes or no findings as the source states them, for the method shown. Binding seen in cells or lysates may run through a third protein. A yes stands for co-enrichment or nearness to the bait. Other partners may have been found. Tags and fused reporters may be left off the sequences shown.
# Biological target: T1, recombinant canonical histone H2B, His-tagged (Trypanosoma cruzi) (Trypanosoma cruzi (CL Brener strain)) (UniProt B5U6T3)
# T1 sequence: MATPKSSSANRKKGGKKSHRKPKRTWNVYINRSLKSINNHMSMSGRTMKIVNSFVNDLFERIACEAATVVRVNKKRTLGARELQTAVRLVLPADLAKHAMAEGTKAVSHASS
# Experiment: affinity purification with mass spectrometry; recombinant His-tagged H2B.V or canonical H2B (bait control) held on Ni-NTA agarose (30 min, 4°C), then 1 h with basic protein extracts of T. cruzi Y strain epimastigotes or TCTs; washed three times with TBS; eluted with 50 mM sodium phosphate, 0.3 M NaCl, 290 mM imidazole; LC-MS/MS; biological triplicates; hits filtered against control samples; only the target purified
row,Substance,binding
1,double RNA binding domain protein 3,binds
2,high mobility group protein TDP1,binds
3,lupus La protein homolog,binds
4,polyadenylate-binding protein (from UniProt Q27335),binds
5,retrotransposon hot spot (RHS) protein,binds
6,tousled-like kinase II (enzyme),binds

# Source: PMC8893665
